Results reported in the supplement of paper PMC10849652.
This is one part of the list.

The chains behind the UniProt entries cited, without tags or fusion partners. Where a name states a change or a piece, a line headed by the entry shows the natural chain unless it says otherwise.
UniProt P67812: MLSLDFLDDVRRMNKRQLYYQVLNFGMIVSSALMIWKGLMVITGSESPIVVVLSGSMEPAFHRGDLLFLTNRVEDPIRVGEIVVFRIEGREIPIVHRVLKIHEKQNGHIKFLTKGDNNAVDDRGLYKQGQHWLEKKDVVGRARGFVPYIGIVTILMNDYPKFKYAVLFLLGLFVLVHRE
UniProt O15027: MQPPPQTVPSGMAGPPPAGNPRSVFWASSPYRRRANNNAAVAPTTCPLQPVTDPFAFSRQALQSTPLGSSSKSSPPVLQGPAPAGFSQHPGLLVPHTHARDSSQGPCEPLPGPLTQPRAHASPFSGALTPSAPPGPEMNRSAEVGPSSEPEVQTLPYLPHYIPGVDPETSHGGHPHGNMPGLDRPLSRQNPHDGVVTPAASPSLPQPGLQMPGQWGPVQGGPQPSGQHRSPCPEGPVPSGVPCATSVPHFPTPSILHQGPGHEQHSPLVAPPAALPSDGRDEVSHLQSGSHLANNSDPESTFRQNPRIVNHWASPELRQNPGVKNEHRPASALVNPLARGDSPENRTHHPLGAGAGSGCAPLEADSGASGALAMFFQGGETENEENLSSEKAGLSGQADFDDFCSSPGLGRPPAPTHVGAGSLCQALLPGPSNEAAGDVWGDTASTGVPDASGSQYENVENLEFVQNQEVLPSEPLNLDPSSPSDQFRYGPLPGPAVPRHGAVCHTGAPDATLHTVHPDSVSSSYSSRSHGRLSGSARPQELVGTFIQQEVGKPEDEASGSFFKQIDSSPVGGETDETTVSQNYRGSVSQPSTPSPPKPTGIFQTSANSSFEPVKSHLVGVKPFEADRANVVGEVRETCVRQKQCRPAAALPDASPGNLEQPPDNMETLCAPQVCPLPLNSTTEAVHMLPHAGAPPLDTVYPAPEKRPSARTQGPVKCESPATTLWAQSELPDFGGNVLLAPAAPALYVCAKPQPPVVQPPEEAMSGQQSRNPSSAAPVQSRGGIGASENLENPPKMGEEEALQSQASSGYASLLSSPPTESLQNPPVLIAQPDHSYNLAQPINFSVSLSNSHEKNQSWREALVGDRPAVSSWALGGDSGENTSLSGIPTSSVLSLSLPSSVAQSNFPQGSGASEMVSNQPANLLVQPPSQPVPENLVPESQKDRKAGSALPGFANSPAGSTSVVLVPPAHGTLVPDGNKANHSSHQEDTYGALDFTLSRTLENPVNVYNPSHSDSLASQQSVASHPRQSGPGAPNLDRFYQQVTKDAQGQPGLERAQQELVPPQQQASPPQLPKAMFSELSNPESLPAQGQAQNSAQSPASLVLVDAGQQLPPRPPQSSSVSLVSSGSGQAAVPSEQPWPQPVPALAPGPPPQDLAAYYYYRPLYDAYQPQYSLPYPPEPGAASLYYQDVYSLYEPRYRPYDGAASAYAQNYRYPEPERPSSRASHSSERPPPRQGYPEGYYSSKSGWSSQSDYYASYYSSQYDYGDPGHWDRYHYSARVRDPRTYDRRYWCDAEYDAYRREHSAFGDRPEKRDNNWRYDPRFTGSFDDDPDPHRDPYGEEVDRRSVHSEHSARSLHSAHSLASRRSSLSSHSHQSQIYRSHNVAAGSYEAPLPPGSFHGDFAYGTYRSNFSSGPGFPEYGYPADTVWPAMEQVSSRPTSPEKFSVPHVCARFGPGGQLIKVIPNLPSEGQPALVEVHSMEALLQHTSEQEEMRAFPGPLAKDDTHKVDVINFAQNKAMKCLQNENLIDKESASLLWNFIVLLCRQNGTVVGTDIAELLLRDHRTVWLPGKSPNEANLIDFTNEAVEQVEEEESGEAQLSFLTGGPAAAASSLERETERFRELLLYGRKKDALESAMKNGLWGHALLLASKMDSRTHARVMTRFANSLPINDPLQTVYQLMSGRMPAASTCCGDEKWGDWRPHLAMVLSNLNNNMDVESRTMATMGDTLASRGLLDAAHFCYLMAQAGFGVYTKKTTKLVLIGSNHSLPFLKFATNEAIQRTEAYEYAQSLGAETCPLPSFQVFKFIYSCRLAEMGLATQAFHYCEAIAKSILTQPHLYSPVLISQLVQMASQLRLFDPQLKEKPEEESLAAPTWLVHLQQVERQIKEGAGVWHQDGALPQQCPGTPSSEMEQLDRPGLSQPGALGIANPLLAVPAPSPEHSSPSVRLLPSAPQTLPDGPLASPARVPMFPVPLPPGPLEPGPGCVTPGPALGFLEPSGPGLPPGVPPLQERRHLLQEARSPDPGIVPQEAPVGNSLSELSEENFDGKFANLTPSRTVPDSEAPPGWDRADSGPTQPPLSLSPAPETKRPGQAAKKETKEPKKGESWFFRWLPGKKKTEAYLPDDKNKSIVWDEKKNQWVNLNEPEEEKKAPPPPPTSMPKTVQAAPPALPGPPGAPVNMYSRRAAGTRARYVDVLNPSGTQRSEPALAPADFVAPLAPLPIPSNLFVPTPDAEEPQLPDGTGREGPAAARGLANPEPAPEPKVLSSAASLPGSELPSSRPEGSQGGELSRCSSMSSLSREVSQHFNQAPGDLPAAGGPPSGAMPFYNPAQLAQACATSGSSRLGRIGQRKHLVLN
UniProt Q14151: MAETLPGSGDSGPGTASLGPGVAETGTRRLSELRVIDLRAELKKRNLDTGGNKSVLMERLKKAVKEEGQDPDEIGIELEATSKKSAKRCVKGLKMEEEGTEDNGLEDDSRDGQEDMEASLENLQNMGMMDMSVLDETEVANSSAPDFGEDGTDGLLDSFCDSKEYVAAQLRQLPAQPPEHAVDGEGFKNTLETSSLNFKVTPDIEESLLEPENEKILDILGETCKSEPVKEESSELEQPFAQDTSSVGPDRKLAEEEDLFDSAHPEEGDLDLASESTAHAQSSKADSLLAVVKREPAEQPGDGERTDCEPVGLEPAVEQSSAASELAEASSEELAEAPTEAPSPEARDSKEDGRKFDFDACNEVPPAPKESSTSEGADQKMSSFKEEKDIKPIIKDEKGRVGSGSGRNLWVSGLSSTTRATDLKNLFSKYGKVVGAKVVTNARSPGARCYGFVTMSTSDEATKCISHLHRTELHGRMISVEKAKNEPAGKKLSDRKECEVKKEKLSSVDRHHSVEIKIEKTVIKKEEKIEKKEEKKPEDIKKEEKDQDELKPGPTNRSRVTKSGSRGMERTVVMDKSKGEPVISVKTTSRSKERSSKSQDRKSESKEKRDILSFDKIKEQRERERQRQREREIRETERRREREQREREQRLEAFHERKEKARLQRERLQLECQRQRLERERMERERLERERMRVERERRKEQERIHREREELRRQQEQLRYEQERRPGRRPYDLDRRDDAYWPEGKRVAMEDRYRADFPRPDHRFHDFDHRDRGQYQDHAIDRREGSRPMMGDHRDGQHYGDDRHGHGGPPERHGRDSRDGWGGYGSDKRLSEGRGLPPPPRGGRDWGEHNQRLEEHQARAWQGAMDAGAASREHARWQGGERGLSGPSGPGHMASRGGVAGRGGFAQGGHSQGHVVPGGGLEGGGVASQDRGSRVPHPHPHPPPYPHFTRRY
UniProt O00560: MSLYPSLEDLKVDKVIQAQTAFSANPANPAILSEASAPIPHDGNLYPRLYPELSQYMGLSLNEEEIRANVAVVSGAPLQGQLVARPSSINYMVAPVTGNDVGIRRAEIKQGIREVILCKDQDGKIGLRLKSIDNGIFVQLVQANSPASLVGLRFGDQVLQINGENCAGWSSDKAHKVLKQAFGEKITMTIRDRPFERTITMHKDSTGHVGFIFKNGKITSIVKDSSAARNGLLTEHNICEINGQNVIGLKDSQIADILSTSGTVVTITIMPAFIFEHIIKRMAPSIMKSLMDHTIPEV
UniProt Q96T51: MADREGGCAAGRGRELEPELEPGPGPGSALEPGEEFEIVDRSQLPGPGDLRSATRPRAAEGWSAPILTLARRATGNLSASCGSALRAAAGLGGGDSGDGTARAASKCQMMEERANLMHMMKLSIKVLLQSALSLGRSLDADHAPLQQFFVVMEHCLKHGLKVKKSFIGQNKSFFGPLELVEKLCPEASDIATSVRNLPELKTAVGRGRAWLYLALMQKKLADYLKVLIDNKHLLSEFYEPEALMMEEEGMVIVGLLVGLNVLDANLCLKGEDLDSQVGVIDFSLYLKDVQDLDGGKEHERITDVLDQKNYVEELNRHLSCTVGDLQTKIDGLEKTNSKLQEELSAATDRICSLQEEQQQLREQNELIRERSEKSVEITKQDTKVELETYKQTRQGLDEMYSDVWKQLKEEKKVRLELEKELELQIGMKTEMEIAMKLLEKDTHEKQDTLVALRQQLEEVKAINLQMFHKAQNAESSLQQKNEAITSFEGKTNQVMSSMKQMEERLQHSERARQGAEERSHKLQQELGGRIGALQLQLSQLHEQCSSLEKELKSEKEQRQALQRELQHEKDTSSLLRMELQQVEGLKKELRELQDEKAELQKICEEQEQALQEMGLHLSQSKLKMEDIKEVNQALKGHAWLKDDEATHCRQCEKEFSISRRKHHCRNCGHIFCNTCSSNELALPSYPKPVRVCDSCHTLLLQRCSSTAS
UniProt Q9NX18: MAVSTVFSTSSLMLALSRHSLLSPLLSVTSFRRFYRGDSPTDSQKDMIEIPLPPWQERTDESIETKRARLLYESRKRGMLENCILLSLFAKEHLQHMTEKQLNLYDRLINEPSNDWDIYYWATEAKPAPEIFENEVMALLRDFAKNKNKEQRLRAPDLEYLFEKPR
UniProt Q96EU6: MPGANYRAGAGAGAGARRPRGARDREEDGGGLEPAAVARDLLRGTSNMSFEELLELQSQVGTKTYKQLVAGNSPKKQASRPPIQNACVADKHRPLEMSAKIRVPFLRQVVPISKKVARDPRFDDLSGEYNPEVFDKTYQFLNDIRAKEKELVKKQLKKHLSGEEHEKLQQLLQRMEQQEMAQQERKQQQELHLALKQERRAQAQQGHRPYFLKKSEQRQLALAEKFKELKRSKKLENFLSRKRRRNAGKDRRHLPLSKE
UniProt O75845: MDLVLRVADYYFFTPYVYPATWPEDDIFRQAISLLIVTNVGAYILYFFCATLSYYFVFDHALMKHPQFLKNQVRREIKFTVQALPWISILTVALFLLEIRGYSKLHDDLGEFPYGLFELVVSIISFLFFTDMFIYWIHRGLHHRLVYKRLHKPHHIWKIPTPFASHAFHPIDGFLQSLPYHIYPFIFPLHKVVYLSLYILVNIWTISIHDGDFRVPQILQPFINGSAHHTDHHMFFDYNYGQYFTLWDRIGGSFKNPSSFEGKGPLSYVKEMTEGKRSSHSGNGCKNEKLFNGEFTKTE
UniProt P55735: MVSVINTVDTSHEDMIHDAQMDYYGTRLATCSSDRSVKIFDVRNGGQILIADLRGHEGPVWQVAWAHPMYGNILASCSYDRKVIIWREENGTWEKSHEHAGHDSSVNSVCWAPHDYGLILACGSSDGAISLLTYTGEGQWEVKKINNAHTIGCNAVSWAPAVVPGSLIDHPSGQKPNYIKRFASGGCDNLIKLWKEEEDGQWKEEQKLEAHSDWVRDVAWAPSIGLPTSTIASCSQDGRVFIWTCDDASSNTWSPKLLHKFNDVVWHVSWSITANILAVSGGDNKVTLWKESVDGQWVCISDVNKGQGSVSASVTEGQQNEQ
UniProt O95969: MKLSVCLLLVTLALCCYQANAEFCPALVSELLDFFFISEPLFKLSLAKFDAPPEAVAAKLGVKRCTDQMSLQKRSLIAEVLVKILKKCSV
UniProt O75556: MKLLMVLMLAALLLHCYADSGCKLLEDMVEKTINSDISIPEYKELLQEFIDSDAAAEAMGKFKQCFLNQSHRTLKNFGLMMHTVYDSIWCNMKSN
UniProt Q9NSI8: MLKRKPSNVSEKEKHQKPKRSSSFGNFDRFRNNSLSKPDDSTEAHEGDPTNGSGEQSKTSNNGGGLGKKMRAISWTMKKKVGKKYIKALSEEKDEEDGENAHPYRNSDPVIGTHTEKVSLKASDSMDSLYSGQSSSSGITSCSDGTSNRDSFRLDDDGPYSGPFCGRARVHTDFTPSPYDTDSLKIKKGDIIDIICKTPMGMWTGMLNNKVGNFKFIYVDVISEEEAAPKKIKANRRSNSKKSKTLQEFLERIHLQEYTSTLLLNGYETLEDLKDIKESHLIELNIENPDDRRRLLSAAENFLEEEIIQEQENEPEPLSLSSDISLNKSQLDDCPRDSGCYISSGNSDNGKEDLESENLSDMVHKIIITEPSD
UniProt Q9Y512: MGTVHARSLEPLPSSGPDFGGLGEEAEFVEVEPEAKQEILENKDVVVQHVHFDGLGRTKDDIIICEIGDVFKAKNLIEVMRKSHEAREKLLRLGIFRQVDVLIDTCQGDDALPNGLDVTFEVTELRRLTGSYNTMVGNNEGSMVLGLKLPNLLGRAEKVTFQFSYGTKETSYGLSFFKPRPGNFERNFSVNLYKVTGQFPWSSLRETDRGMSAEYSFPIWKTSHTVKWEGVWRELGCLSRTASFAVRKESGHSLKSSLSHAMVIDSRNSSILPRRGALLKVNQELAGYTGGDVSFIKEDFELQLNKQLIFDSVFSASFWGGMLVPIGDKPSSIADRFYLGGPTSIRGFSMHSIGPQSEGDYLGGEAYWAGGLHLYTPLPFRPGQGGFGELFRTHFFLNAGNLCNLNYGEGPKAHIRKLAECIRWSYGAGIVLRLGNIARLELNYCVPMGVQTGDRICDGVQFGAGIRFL

Assays:
Experiment in all cases: log2 fold change, soluble protein after heating vs DMSO (PISA); higher = thermal stabilisation; K562 cells, 10 uM, 30 min; active = over 0.2 and 3.5 SD of the protein, either way, in both replicates (recomputed)
[1] = compound: C1=CC=C(C=C1)[C@H](COC2=CC3=C(C=C2)NC(=O)N3)NC(=O)C4=CC=CN(C4=O)CC5=CC(=C(C=C5)F)F
Outline: (§1)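 Soluble protein was defined as the supernatant after 21,000xg for 90 min. It came from K562 cells at 2×10^6 cells/mL given 10 μM compound for 30 min, heated in aliquots for 3 min across 48°C-58°C, pooled, and extracted in PBS with 0.5% NP-40 at 4°C, and was quantified by TMTpro 16plex LC-MS/MS with equalised channel sums. Thermal stability against control samples, from duplicates, is reported as log2 fold change.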

[2] = compound: CC1=C(SC2=C1C(=N[C@H](C3=NN=C(N32)C)CC(=O)N)C4=CC=C(C=C4)Cl)C
Outline: as §1

[3] = compound: CC1=C2C(=CC=C1)N=C(N(C2=O)C3=CC=CC=C3C)CN4C=NC5=C(N=CN=C54)N
Outline: as §1

[4] = compound: Cc1sc2c(c1C)C(c1ccc(Cl)cc1)=N[C@@H](CC(=O)OC(C)(C)C)c1nnc(C)n1-2
Outline: as §1

[5] = compound: c1ccc([C@@H]2C[C@H]2NC2CCNCC2)cc1
Outline: as §1

erlotinib = compound: C#Cc1cccc(Nc2ncnc3cc(OCCOC)c(OCCOC)cc23)c1 [erlotinib]
Outline: as §1

[6] = compound: C1=CC(=CC=C1C2=NC3=C(N2)C=C(C=C3)C(=O)N)OC4=CC=C(C=C4)Cl
Outline: as §1

[7] = compound: C1CCN(C1)C(=O)NC2=CC=CC(=C2)NC3=NC=C(C(=N3)NCCC4=CN=CN4)Br
Outline: as §1

[8] = compound: C1CN(CCC1(CC2=CC=C(C=C2)Cl)N)C3=NC=NC4=C3C=CN4
Outline: as §1

[9] = compound: CC(C)C1=C2N=C(C=C(N2N=C1)NCC3=CC=CC=C3)NCCCCCCN
Outline: as §1

[10] = compound: CC1=C(C2=C(C=C1)C(=O)C3=CC=CC=C3N2CCCN)C
Outline: as §1

[11] = compound: CC1=C(C=C(C=C1)NC(=O)C2=CC(=CC=C2)C(C)(C)C#N)NC3=CC4=C(C=C3)N=CN(C4=O)C
Outline: as §1

givinostat = compound: CCN(CC)Cc1ccc2cc(COC(=O)Nc3ccc(C(=O)NO)cc3)ccc2c1 [givinostat]
Outline: as §1

[12] = compound: CCn1c(C(=O)N(C2CC2)C2CC2)cc2c3c(ncn3C)c(Nc3cc(C)n(C)n3)nc21
Outline: as §1

[13] = compound: CN1C2=C(C3=C1C(=O)N(N=C3)CC4=CC(=CC=C4)N)SC(=C2)S(=O)C
Outline: as §1

saracatinib = compound: CN1CCN(CCOc2cc(OC3CCOCC3)c3c(Nc4c(Cl)ccc5c4OCO5)ncnc3c2)CC1 [saracatinib]
Outline: as §1

sotrastaurin = compound: CN1CCN(c2nc(C3=C(c4c[nH]c5ccccc45)C(=O)NC3=O)c3ccccc3n2)CC1 [sotrastaurin]
Outline: as §1

Tubastatin A = compound: CN1CCc2c(c3ccccc3n2Cc2ccc(C(=O)NO)cc2)C1 [Tubastatin A]
Outline: as §1

[14] = compound: CNC(=O)C1=CC=CC=C1NC2=NC(=NC=C2Cl)NC3=C(C=C(C=C3)N4CCOCC4)OC
Outline: as §1

[15] = compound: CNc1nc(-c2ccc3c(N)n[nH]c3c2)cc(N2C[C@@H](C(=O)NC3CCCCC3)CC[C@H]2C)n1
Outline: as §1

filanesib = compound: CON(C)C(=O)N1N=C(c2cc(F)ccc2F)S[C@@]1(CCCN)c1ccccc1 [filanesib]
Outline: as §1

[16] = compound: CS(=O)(=O)c1ccc(-c2cnc(N)c(C(=O)Nc3ccccc3)n2)cc1
Outline: as §1

duvelisib = compound: C[C@H](Nc1ncnc2nc[nH]c12)c1cc2cccc(Cl)c2c(=O)n1-c1ccccc1 [duvelisib]
Outline: as §1

tozasertib = compound: Cc1cc(Nc2cc(N3CCN(C)CC3)nc(Sc3ccc(NC(=O)C4CC4)cc3)n2)n[nH]1 [tozasertib]
Outline: as §1

[17] = compound: Cc1cc(SCc2sc(-c3ccc(C(F)(F)F)cc3)nc2C)ccc1OCC(=O)O
Outline: as §1

dasatinib = compound: Cc1nc(Nc2ncc(C(=O)Nc3c(C)cccc3Cl)s2)cc(N2CCN(CCO)CC2)n1 [dasatinib]
Outline: as §1

[18] = compound: NC(=O)Nc1cc(-c2cccc(F)c2)sc1C(=O)N[C@H]1CCCNC1
Outline: as §1

entinostat = compound: Nc1ccccc1NC(=O)c1ccc(CNC(=O)OCc2cccnc2)cc1 [entinostat]
Outline: as §1

Measured: log2 fold change

SARNP (UniProt P82979)
inactive: [1] 0.053 | [2] -0.022 | [3] -0.043 | [4] 0.052 | [5] 0.051

SARS1 (UniProt Q5T5C7)
inactive: erlotinib -0.059 | [6] 0.213 | [7] -0.058 | [8] -0.04 | [9] 0.183 | [10] -0.112 | [11] -0.016 | givinostat 0.004 | [12] -0.044 | [13] 0.083 | saracatinib 0.09 | sotrastaurin -0.004 | Tubastatin A 0.033 | [14] -0.174 | [15] 0.005 | filanesib 0.127 | [16] 0.031 | duvelisib -0.06 | tozasertib 0.044 | [17] -0.031 | dasatinib -0.057 | [4] -0.007 | [18] 0.226 | entinostat -0.01

SEC11A isoform 3 (UniProt P67812)
inactive: [1] -0.044 | [2] 0.017 | [3] 0.007 | [4] -0.048 | [5] 0.003

SEC16A isoform 5 (UniProt O15027)
inactive: [1] 0.014 | [2] 0.012 | [3] 0.154 | [4] 0.011 | [5] -0.006

SAFB2 (UniProt Q14151)
inactive: [1] 0.051 | [2] -0.087 | [3] -0.103 | [4] 0.045 | [5] 0

RSBN1L (UniProt Q6PCB5)
inactive: [1] 0.117 | [2] -0.285 | [3] -0.261 | [4] 0.17 | [5] 0.034

Pulled one by one from the entries so far (2):
SEC16A isoform 5 (UniProt O15027)
inactive: [1] 0.014 | [2] 0.012 | [3] 0.154 | [4] 0.011 | [5] -0.006

RSBN1L (UniProt Q6PCB5)
inactive: [1] 0.117 | [2] -0.285 | [3] -0.261 | [4] 0.17 | [5] 0.034

Additional records.

RUVBL2 (UniProt Q9Y230)
inactive: [1] 0.033 | [2] 0.025 | [3] -0.018 | [4] -0.019 | [5] 0.028

SCYL1 (UniProt Q96KG9)
inactive: [1] -0.042 | [2] 0.04 | [3] 0.033 | [4] -0.02 | [5] -0.003

RTF1 (UniProt Q92541)
inactive: [1] -0.014 | [2] 0.036 | [3] 0.057 | [4] -0.013 | [5] 0.02

SDCBP (UniProt O00560)
inactive: [1] 0.029 | [2] -0.031 | [3] -0.067 | [4] 0.04 | [5] -0.102

RUFY1 (UniProt Q96T51)
inactive: [1] -0.006 | [2] -0.029 | [3] 0.041 | [4] 0.002 | [5] -0.028

SDHAF2 (UniProt Q9NX18)
inactive: [1] -0.02 | [2] 0.078 | [3] -0.013 | [4] -0.097 | [5] -0.096

RRP36 (UniProt Q96EU6)
inactive: [1] 0.119 | [2] -0.266 | [3] -0.228 | [4] 0.245 | [5] 0.019

SC5D (UniProt O75845)
inactive: [1] 0.033 | [2] 0.004 | [3] -0.023 | [4] -0.017 | [5] 0.045

SARG (UniProt Q9BW04)
inactive: [1] 0.023 | [2] 0.007 | [3] 0.02 | [4] -0.047 | [5] 0.087

SEC13 isoform 3 (UniProt P55735)
inactive: [1] -0.094 | [2] -0.02 | [3] 0.033 | [4] 0.043 | [5] 0.01

SCGB1D2 (UniProt O95969)
inactive: [1] -0.362 | [2] -0.039 | [3] -0.115 | [4] -0.414 | [5] -0.073

SAFB2 (UniProt K7EQU4)
inactive: [1] -0.338

SACM1L (UniProt Q9NTJ5)
inactive: [1] 0 | [2] 0.048 | [3] 0.064 | [4] -0.044 | [5] 0.006

SCFD1 (UniProt Q8WVM8)
inactive: [1] -0.034 | [2] 0.009 | [3] 0.039 | [4] 0.025 | [5] -0.024

SCGB2A1 (UniProt O75556)
inactive: [1] -0.306

RRP15 (UniProt Q9Y3B9)
inactive: [1] 0.022 | [2] -0.052 | [3] -0.018 | [4] 0.011 | [5] 0.025

SAMSN1 isoform 3 (UniProt Q9NSI8)
inactive: [1] -0.028 | [2] 0.014 | [3] 0.025 | [4] -0.01 | [5] -0.01

SAMHD1 (UniProt Q9Y3Z3)
inactive: [1] -0.007 | [2] 0.028 | [3] -0.003 | [4] -0.011 | [5] 0.042

SAMM50 (UniProt Q9Y512)
inactive: [1] 0.023 | [2] -0.002 | [3] -0.014 | [4] 0.013 | [5] 0.024

SDE2 (UniProt Q6IQ49)
inactive: [1] -0.004 | [2] -0.065 | [3] 0.07 | [4] -0.033 | [5] 0.004
